Consider 1 molecule from paper doi:10.1101/795211 (bioRxiv, 2019).

The target in the assay is His-dihydrofolate reductase. Briefly: BLI. For orientation: In BLI a coated tip is dipped into the sample, and binding shifts an interference pattern.

These are yes or no findings as the source states them, for the method shown. Tags and fused reporters may be left off the sequences shown.

B1: YoeB toxin from Agrobacterium tumefaciens (AtYoeB), expressed alone, after removal of the GST-His affinity tag (natural protein)
chain: MKLVWTLSSWDDYEFWQRTDARMVEKINDLIRNAKRTPFAGLGKPEPLKGDMAGYWSRRITAEHRFVYRVSGSGSEQRLEVIQCRFHYQ
As for B1, the binding entry is “no binding”.
